Protein sequences, listed by entry. Tags and fused reporters are not part of them. Lines headed by an entry give the natural chain unless they say otherwise; changes in a name come on top. Chains listed by the source or under a name are the forms on record and can include a tag or linker.
MAP4K4-BioID2-3xFLAG (O95819, form named): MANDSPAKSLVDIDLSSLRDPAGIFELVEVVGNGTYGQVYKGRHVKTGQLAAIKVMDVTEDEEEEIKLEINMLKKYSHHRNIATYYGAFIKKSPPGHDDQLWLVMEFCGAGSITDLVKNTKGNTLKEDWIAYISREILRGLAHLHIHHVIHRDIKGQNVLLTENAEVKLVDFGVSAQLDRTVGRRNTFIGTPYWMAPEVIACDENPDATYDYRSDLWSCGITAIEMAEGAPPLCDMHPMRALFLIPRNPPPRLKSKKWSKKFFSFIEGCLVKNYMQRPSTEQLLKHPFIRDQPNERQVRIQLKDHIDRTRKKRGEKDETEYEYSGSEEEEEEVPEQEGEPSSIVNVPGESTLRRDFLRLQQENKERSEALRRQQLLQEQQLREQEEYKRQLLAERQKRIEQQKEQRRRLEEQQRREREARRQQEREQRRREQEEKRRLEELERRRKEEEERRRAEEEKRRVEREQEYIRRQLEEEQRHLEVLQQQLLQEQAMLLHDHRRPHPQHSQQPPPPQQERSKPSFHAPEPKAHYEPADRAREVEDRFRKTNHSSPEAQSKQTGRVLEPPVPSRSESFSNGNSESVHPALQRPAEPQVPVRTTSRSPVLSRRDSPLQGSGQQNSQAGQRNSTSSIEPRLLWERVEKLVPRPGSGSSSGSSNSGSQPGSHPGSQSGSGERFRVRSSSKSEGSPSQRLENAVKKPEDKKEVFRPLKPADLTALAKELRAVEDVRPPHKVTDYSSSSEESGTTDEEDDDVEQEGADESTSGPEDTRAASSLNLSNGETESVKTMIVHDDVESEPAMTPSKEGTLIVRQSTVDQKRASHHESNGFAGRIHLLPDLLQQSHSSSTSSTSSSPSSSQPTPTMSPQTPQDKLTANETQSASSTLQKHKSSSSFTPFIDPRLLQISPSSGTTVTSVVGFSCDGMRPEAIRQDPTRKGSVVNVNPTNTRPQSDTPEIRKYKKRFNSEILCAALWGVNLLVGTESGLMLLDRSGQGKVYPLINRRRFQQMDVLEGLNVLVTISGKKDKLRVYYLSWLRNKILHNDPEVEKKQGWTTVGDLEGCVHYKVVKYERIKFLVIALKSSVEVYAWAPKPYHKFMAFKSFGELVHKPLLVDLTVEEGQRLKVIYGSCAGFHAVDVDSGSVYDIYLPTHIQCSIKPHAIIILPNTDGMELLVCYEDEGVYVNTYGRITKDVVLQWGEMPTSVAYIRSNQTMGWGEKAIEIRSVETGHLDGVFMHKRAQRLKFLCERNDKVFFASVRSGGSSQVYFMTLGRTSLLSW
UniProt P50552: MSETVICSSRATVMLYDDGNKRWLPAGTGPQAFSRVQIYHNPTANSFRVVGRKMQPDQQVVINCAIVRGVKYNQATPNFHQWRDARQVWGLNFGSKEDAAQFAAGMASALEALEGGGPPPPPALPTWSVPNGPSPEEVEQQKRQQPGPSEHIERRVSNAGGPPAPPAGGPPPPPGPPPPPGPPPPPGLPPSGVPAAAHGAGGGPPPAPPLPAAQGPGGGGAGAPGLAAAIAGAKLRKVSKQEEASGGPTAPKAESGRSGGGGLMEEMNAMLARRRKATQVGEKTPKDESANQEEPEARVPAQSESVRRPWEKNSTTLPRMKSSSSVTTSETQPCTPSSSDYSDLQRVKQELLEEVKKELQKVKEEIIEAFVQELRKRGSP

In article PMC9360036:

Target: MAP4K4-BioID2-3xFLAG (human) (UniProt O95819)
Assay: proximity labelling; BioID with N-BioID2-M4K4 or C-BioID2-M4K4, streptavidin pull-down and mass spectrometry; told in the discussion only; cells not told (HEK-293T or DAOY)

For VASP (from UniProt P50552 1-380), the binding was “no binding”.

These are yes or no findings as the source states them, for the method shown. In cells and extracts the contact can be indirect. A yes stands for co-enrichment or nearness to the bait. Other partners may have been found. A no says only that the protein was not detected with the bait.
